Test results as given in the supplement of paper PMC6411743.
± gives the standard deviation of the averaged measurements. The list shows a part of the results, in another mix than the full data.

Chains of the proteins cited; added tags and fusions are not shown. Lines headed by an entry give the natural chain unless they say otherwise; changes in a name come on top.
UniProt P61764, whole entry: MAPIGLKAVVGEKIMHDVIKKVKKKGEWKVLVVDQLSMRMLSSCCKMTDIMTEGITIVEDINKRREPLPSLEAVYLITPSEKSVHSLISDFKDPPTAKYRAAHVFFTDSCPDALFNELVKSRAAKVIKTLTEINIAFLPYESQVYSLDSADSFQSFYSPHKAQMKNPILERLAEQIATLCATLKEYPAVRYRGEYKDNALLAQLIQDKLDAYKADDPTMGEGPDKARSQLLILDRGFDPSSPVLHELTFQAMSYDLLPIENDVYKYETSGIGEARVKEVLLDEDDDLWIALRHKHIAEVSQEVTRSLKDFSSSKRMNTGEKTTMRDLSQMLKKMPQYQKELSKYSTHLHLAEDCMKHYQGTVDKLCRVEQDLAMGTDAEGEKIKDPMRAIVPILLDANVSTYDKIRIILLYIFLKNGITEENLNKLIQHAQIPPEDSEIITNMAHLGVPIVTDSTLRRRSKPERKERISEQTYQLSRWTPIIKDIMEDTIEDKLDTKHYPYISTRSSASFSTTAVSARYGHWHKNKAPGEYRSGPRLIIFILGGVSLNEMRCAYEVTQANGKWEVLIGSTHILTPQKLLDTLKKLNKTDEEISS
UniProt P62195, whole entry: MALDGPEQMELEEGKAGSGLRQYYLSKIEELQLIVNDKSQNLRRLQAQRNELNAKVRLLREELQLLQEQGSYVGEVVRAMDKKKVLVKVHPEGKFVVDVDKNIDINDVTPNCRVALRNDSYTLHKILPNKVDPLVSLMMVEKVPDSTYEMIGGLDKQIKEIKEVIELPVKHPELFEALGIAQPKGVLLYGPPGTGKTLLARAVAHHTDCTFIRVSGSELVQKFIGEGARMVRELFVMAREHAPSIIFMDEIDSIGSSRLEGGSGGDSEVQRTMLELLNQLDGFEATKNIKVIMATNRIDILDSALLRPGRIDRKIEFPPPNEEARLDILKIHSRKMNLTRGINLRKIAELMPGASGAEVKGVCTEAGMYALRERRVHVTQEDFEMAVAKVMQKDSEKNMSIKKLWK
UniProt P60174, whole entry: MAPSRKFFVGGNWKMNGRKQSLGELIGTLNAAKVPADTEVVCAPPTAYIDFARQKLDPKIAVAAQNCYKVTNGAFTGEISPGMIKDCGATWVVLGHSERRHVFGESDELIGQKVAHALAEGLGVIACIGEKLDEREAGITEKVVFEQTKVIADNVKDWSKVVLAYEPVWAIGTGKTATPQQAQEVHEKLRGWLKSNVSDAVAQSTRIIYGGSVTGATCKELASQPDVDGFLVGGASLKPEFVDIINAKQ
UniProt P56199, whole entry: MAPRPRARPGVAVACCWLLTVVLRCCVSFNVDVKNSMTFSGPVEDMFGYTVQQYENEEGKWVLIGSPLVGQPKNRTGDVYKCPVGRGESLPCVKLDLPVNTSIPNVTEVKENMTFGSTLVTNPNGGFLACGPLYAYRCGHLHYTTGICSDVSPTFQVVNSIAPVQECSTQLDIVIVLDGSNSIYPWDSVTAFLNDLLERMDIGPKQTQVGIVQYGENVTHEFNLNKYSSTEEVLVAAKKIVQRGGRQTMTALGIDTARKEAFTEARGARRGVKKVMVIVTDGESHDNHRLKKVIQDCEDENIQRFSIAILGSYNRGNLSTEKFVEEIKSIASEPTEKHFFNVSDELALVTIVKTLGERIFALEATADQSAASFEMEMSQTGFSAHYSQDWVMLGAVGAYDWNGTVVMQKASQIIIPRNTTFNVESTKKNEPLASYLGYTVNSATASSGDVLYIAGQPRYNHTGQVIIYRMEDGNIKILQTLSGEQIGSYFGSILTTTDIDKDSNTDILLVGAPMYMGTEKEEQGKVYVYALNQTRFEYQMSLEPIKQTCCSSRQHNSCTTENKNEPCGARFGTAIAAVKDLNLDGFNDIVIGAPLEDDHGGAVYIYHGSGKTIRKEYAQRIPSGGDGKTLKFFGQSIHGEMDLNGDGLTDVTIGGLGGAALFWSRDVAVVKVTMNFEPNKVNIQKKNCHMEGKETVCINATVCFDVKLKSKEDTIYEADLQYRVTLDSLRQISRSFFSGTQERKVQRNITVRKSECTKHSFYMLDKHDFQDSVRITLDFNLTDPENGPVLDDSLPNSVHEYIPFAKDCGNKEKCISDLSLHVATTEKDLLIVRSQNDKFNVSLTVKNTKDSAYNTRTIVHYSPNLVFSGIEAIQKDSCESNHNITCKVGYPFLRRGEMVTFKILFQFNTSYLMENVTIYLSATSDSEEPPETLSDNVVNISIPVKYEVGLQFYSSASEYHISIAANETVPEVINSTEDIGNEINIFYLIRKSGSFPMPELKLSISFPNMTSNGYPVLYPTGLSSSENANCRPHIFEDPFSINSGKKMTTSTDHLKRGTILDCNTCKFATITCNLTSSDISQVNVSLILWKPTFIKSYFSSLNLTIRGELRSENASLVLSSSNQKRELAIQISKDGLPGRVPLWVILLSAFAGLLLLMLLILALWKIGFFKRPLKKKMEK
UniProt P54132: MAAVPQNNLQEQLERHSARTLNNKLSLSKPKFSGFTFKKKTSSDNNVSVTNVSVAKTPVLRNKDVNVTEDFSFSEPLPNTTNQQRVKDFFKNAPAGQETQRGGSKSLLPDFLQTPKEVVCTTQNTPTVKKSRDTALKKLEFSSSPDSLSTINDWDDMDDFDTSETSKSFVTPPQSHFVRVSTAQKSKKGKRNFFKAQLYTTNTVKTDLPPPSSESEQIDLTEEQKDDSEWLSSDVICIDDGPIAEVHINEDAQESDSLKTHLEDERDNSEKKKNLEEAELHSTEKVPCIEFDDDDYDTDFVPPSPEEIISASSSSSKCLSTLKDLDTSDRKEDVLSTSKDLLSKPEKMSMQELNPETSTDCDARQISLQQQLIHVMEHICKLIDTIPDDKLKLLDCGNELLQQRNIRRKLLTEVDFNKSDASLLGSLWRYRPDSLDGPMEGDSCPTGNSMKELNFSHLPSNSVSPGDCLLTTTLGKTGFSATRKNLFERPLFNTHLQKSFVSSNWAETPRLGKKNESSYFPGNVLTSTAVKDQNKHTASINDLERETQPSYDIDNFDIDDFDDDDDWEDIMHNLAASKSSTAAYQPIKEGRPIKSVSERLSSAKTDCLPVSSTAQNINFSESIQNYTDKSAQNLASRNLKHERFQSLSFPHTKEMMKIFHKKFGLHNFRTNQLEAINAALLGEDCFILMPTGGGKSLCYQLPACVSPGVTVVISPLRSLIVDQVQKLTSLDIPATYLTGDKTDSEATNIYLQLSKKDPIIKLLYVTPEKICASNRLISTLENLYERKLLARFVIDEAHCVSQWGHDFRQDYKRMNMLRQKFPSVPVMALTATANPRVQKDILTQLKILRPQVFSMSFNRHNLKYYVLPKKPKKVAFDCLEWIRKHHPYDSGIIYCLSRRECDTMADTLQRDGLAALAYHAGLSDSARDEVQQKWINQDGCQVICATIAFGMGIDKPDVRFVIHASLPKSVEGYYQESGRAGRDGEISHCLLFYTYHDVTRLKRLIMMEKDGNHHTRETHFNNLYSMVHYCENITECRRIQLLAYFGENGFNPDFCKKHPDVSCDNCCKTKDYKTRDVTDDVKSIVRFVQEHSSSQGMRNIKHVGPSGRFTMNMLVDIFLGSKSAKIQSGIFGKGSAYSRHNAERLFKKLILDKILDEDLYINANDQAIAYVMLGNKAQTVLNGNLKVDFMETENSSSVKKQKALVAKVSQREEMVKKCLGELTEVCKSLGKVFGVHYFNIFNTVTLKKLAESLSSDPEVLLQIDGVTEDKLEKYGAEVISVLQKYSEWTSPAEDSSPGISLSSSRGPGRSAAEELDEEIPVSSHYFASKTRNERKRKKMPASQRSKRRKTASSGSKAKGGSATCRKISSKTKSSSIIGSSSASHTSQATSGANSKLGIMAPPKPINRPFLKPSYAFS
UniProt P54619: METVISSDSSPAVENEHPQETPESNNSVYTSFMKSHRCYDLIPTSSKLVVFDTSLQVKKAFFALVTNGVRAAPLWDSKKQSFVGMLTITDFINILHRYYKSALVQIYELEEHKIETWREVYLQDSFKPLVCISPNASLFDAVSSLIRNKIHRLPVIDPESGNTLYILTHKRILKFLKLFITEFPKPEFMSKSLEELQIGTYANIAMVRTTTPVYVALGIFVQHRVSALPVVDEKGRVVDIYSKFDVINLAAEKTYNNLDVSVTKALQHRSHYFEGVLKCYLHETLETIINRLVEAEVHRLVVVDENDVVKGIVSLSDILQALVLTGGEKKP
UniProt P60520, whole entry: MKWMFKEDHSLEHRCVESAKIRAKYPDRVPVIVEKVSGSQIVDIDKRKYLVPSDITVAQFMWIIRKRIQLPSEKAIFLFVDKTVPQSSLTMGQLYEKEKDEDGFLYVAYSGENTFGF
UniProt P84022, whole entry, looked up: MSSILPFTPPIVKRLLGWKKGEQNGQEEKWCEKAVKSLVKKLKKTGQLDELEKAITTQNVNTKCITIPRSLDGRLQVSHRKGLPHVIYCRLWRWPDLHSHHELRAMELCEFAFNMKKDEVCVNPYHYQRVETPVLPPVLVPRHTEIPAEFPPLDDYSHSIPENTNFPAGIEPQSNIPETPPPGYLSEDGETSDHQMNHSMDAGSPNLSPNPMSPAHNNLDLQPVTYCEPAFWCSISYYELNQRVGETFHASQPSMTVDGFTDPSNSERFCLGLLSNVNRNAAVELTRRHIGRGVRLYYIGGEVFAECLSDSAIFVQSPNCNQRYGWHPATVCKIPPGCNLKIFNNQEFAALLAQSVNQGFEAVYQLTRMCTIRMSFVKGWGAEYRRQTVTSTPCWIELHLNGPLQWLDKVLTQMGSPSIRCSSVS
UniProt P56192: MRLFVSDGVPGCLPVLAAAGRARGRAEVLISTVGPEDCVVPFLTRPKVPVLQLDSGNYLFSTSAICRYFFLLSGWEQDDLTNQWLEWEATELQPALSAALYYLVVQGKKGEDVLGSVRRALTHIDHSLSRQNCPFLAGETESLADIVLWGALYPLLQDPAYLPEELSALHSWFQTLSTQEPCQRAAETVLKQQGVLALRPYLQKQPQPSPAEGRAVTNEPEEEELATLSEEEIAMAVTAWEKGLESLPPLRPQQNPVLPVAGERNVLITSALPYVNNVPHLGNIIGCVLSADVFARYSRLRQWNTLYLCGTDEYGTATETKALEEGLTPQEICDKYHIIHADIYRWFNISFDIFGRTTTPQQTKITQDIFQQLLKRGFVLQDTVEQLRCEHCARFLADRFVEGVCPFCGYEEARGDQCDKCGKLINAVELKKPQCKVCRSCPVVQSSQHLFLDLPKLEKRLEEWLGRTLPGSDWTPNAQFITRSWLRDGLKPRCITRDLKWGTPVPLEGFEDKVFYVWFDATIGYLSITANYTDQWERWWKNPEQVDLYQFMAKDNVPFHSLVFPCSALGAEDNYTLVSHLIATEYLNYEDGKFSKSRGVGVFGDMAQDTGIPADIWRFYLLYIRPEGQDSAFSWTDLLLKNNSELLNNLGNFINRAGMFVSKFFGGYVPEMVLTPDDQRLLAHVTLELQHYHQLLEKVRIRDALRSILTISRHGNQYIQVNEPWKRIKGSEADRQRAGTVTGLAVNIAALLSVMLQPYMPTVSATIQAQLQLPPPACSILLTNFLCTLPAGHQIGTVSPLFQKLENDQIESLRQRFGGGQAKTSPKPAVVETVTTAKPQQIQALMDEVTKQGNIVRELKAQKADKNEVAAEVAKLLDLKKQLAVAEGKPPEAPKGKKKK
UniProt P63151: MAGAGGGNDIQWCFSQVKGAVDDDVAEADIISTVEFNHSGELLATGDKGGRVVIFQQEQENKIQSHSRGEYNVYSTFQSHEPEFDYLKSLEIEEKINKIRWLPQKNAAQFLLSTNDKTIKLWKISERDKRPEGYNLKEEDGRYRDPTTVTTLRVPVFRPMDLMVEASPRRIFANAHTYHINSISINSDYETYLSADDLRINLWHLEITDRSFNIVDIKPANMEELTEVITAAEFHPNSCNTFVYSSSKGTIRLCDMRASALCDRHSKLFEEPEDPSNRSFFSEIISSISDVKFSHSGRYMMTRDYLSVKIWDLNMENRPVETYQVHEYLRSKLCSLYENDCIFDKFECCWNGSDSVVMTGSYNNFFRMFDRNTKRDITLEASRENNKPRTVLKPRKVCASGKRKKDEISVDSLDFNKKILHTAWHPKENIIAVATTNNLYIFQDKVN
UniProt P61962: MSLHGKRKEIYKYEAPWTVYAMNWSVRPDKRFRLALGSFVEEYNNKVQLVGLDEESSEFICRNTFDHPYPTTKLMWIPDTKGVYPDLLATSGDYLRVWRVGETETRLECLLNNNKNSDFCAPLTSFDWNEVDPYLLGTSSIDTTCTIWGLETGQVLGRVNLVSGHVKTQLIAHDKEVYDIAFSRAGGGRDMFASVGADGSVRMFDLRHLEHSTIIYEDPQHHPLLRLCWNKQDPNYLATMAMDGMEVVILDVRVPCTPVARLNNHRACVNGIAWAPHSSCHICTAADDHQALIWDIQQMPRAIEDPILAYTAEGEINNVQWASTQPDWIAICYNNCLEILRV
UniProt P60981: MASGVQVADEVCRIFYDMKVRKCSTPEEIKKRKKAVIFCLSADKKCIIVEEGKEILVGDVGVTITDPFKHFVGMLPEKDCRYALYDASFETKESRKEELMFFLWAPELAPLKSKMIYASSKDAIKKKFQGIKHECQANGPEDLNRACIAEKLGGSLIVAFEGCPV

Compound: Nc1ncnc2c1ncn2[C@@H]1O[C@H](COP(=O)(O)OP(=O)(O)OP(=O)(O)O)[C@@H](O)[C@H]1O [adenosine triphosphate]
Test: NP40-soluble protein abundance relative to vehicle (solubility fold change) (ratio); higher = more soluble protein in presence of ATP
Procedure, shortened: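 Eight concentrations, 0.1 to 10 mM, were tested on Jurkat crude lysate for 10 min at room temperature and then 3 min at 37 °C, in three independent experiments. The lysate was solubilised with 0.8% NP40 and benzonase, ultracentrifuged, and the supernatant TMT-labelled for LC-MS/MS. Each value is the fold change against the detergent-processed vehicle in its own replicate, from vsn-normalised intensities.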

Target	NP40-soluble protein abundance (concentration: 1mM)	NP40-soluble protein abundance (concentration: 2mM)	NP40-soluble protein abundance (concentration: 4mM)	NP40-soluble protein abundance (concentration: 6mM)	NP40-soluble protein abundance (concentration: 8mM)	NP40-soluble protein abundance (concentration: 10mM)
EEF1A1 (UniProt P68104)	0.965 ± 0.048	0.972 ± 0.065	0.875 ± 0.036	0.957 ± 0.033	0.94 ± 0.028	0.932 ± 0.05
UniProt P61160	1.01 ± 0.022	0.999 ± 0.028	0.956 ± 0.038	0.983 ± 0.047	1 ± 0.044	0.969 ± 0.033
UniProt P61764 and related entries	0.9886 ± 0.0036	0.963 ± 0.011	0.943 ± 0.025	0.944 ± 0.039	0.966 ± 0.02	0.931 ± 0.013
UniProt P62195 and related entries	0.971 ± 0.026	0.912 ± 0.011	0.889 ± 0.01	0.885 ± 0.081	0.929 ± 0.054	0.89 ± 0.054
UniProt P62877	0.98 ± 0.026	0.986 ± 0.029	0.887 ± 0.01	0.991 ± 0.057	0.922 ± 0.026	0.9141 ± 0.0062
UniProt P60174 and related entries	0.969 ± 0.025	0.9459 ± 0.007	0.911 ± 0.015	0.993 ± 0.012	0.893 ± 0.047	0.88 ± 0.039
UniProt P61313	0.988 ± 0.062	0.898 ± 0.088	0.922 ± 0.11	0.851 ± 0.11	0.771 ± 0.11	0.898 ± 0.1
CEBPG (UniProt P53567)	1.03 ± 0.15	1.03 ± 0.22	1.04 ± 0.13	1.14 ± 0.19	0.893 ± 0.043	0.975 ± 0.07
UniProt P78362-2|P78362	1.1 ± 0.013	1.149 ± 0.0076	1.24 ± 0.026	1.36 ± 0.035	1.38 ± 0.034	1.47 ± 0.026
TMSB4X (UniProt P62328)	0.949 ± 0.27	0.699 ± 0.064	0.826 ± 0.14	0.892 ± 0.096	0.741 ± 0.071	0.747 ± 0.11
RABGGTB (UniProt P53611)	1.07 ± 0.17	1.03 ± 0.071	0.983 ± 0.11	0.944 ± 0.22	1.01 ± 0.1	1 ± 0.051
ITGA1 (UniProt P56199)	0.94 ± 0.053	0.926 ± 0.044	0.996 ± 0.061	0.989 ± 0.012	0.8962 ± 0.0068	0.915 ± 0.029
CCT2 (UniProt P78371)	1.01 ± 0.034	0.926 ± 0.031	0.85 ± 0.029	0.87 ± 0.12	0.872 ± 0.058	0.836 ± 0.048
UniProt P62258	0.945 ± 0.027	0.9459 ± 0.0072	0.9189 ± 0.0077	0.9464 ± 0.0075	0.922 ± 0.013	0.898 ± 0.041
UniProt P61966	0.922 ± 0.054	1.03 ± 0.02	0.99 ± 0.042	1.02 ± 0.12	0.976 ± 0.061	0.973 ± 0.037
UniProt P84103 and related entries	1.28 ± 0.1	1.29 ± 0.072	1.3 ± 0.11	1.45 ± 0.089	1.397 ± 0.0027	1.39 ± 0.089
UniProt P62805	0.852 ± 0.077	0.826 ± 0.06	0.835 ± 0.066	0.843 ± 0.081	0.861 ± 0.058	1.01 ± 0.17
UniProt P62834	1.06 ± 0.048	1.03 ± 0.021	1.05 ± 0.084	1.09 ± 0.051	1.02 ± 0.099	1.03 ± 0.11
BLM (UniProt P54132)	1 ± 0.028	1.03 ± 0.03	1.04 ± 0.036	1.06 ± 0.021	1.1 ± 0.048	1.13 ± 0.036
CDK5 (UniProt Q00535)	1.01 ± 0.025	0.991 ± 0.028	0.992 ± 0.021	0.948 ± 0.089	0.985 ± 0.035	0.975 ± 0.044

Copied from the list.
Value for UniProt P62258 under NP40-soluble protein abundance (concentration: 6mM): 0.9464 ± 0.0075
Value for BLM (UniProt P54132) under NP40-soluble protein abundance (concentration: 1mM): 1 ± 0.028

Later entries:

Target	NP40-soluble protein abundance (concentration: 1mM)	NP40-soluble protein abundance (concentration: 2mM)	NP40-soluble protein abundance (concentration: 4mM)	NP40-soluble protein abundance (concentration: 6mM)	NP40-soluble protein abundance (concentration: 8mM)	NP40-soluble protein abundance (concentration: 10mM)
GRB2 (UniProt P62993)	0.991 ± 0.058	0.962 ± 0.059	0.946 ± 0.06	0.947 ± 0.072	0.968 ± 0.067	0.933 ± 0.053
OXCT1 (UniProt P55809)	0.98 ± 0.036	0.981 ± 0.043	0.955 ± 0.037	0.978 ± 0.057	0.968 ± 0.051	0.951 ± 0.05
CLNS1A (UniProt P54105)	0.934 ± 0.1	0.933 ± 0.06	0.949 ± 0.054	0.954 ± 0.092	0.925 ± 0.03	0.854 ± 0.082
UniProt P54619 and related entries	1.06 ± 0.18	0.97 ± 0.053	0.96 ± 0.034	0.934 ± 0.15	1.02 ± 0.042	0.999 ± 0.033
UniProt P60520	0.96 ± 0.12	0.955 ± 0.09	0.917 ± 0.079	0.919 ± 0.15	0.932 ± 0.11	0.9 ± 0.12
TFAM (UniProt Q00059)	0.94 ± 0.14	0.915 ± 0.071	0.909 ± 0.091	0.958 ± 0.12	0.955 ± 0.018	0.815 ± 0.18
UniProt P63000 and related entries	0.984 ± 0.045	0.995 ± 0.075	0.962 ± 0.094	0.937 ± 0.075	0.994 ± 0.1	0.977 ± 0.041
UniProt P63313	0.914 ± 0.12	0.813 ± 0.01	0.916 ± 0.054	0.957 ± 0.071	0.815 ± 0.018	0.851 ± 0.12
UniProt P61081	0.982 ± 0.03	0.962 ± 0.021	0.919 ± 0.027	0.978 ± 0.029	0.948 ± 0.015	0.931 ± 0.028
ELL (UniProt P55199)	0.972 ± 0.028	0.997 ± 0.043	1.02 ± 0.038	0.983 ± 0.062	0.989 ± 0.055	1.04 ± 0.059
UniProt P61978 and related entries	0.97 ± 0.054	0.957 ± 0.041	0.922 ± 0.037	0.986 ± 0.032	0.9332 ± 0.0087	0.939 ± 0.012
UniProt P61073 and related entries	0.966 ± 0.096	0.904 ± 0.074	0.876 ± 0.06	0.836 ± 0.12	0.837 ± 0.034	0.89 ± 0.068
UniProt P84022	0.988 ± 0.076	1.01 ± 0.05	1.04 ± 0.06	1.05 ± 0.017	1.01 ± 0.056	1.06 ± 0.038
MARS (UniProt P56192)	0.99 ± 0.05	0.963 ± 0.013	0.915 ± 0.0096	0.938 ± 0.11	0.97 ± 0.051	0.953 ± 0.052
UniProt P62879	0.99 ± 0.07	0.999 ± 0.07	0.974 ± 0.022	0.909 ± 0.031	0.962 ± 0.022	0.96 ± 0.033
S100A10 (UniProt P60903)	0.911 ± 0.064	0.884 ± 0.063	0.836 ± 0.086	0.881 ± 0.083	0.861 ± 0.032	0.795 ± 0.13
UniProt P62249	0.848 ± 0.043	0.774 ± 0.1	0.748 ± 0.099	0.689 ± 0.089	0.65 ± 0.096	0.709 ± 0.092
UniProt P56202 and related entries	0.996 ± 0.068	0.969 ± 0.044	0.948 ± 0.046	1.02 ± 0.071	0.974 ± 0.062	0.955 ± 0.034
UniProt P62312	0.948 ± 0.059	0.971 ± 0.043	0.912 ± 0.03	0.929 ± 0.027	0.921 ± 0.042	0.896 ± 0.039
UniProt P62851	0.924 ± 0.19	0.814 ± 0.14	0.799 ± 0.2	0.79 ± 0.23	0.555 ± 0.1	0.797 ± 0.21

Target	NP40-soluble protein abundance (concentration: 1mM)	NP40-soluble protein abundance (concentration: 2mM)	NP40-soluble protein abundance (concentration: 4mM)	NP40-soluble protein abundance (concentration: 6mM)	NP40-soluble protein abundance (concentration: 8mM)	NP40-soluble protein abundance (concentration: 10mM)
STX17 (UniProt P56962)	0.992 ± 0.012	0.9767 ± 0.0076	0.963 ± 0.027	0.977 ± 0.041	0.951 ± 0.028	0.971 ± 0.019
UniProt P78527	1.21 ± 0.15	1.15 ± 0.097	1.15 ± 0.06	1.07 ± 0.08	1.25 ± 0.03	1.17 ± 0.062
UniProt P63151	1.02 ± 0.067	1 ± 0.066	0.989 ± 0.065	0.958 ± 0.063	1.01 ± 0.064	0.989 ± 0.071
UniProt P62495	1.01 ± 0.095	0.993 ± 0.072	0.968 ± 0.078	0.951 ± 0.13	1.03 ± 0.081	0.971 ± 0.057
UniProt P78410 and related entries	0.97 ± 0.018	0.932 ± 0.044	0.921 ± 0.031	0.937 ± 0.075	0.893 ± 0.037	0.889 ± 0.061
UniProt P61106	0.96 ± 0.041	0.98 ± 0.048	0.941 ± 0.057	0.94 ± 0.11	0.943 ± 0.053	0.956 ± 0.052
UniProt P55899 and related entries	0.958 ± 0.096	0.975 ± 0.032	1.02 ± 0.078	1.03 ± 0.093	0.938 ± 0.037	0.93 ± 0.081
UniProt P62875	0.952 ± 0.092	0.941 ± 0.12	0.964 ± 0.11	0.96 ± 0.2	0.971 ± 0.11	0.938 ± 0.15
MTPN (UniProt P58546)	0.828 ± 0.16	0.767 ± 0.15	0.705 ± 0.19	0.87 ± 0.14	0.819 ± 0.074	0.708 ± 0.066
MFAP1 (UniProt P55081)	1.02 ± 0.084	1.01 ± 0.042	0.921 ± 0.044	0.957 ± 0.051	0.875 ± 0.023	0.887 ± 0.049
UniProt P62917	0.969 ± 0.07	0.922 ± 0.12	0.901 ± 0.12	0.852 ± 0.12	0.591 ± 0.071	0.956 ± 0.12
UniProt P78356	0.998 ± 0.033	1.01 ± 0.036	1.04 ± 0.034	1.05 ± 0.044	1.06 ± 0.047	1.04 ± 0.026
UniProt P68366 and related entries	1 ± 0.13	1.01 ± 0.12	0.976 ± 0.17	0.991 ± 0.17	0.997 ± 0.2	0.974 ± 0.11
SLC16A1 (UniProt P53985)	0.974 ± 0.07	0.97 ± 0.074	0.932 ± 0.034	1.03 ± 0.089	0.9688 ± 0.0072	0.947 ± 0.018
UniProt P54725 and related entries	0.886 ± 0.017	0.919 ± 0.013	0.913 ± 0.018	0.876 ± 0.028	0.961 ± 0.081	0.874 ± 0.063
UniProt P60866 and related entries	0.877 ± 0.029	0.829 ± 0.08	0.767 ± 0.092	0.775 ± 0.1	0.671 ± 0.1	0.751 ± 0.082
UniProt P61962	1.1 ± 0.06	1.08 ± 0.054	1.07 ± 0.025	1.06 ± 0.063	1.15 ± 0.014	1.13 ± 0.068
UniProt P62310	0.967 ± 0.046	0.94 ± 0.016	0.908 ± 0.034	1.003 ± 0.0085	0.9089 ± 0.0043	0.889 ± 0.019
MRPS10 (UniProt P82664)	1.09 ± 0.073	0.984 ± 0.1	0.961 ± 0.17	0.897 ± 0.21	1.02 ± 0.22	0.861 ± 0.13
DSTN (UniProt P60981)	0.961 ± 0.049	0.946 ± 0.015	0.891 ± 0.028	0.93 ± 0.069	0.904 ± 0.043	0.906 ± 0.05
